# The other results are listed elsewhere or left out.
# Key:
# Assay in all cases: glycan array binding signal (z-score within array); higher = stronger binding
# Settings in all cases: glycan notation: IUPAC condensed, linker removed
# Fuc(a1-2)Gal = target: Fuc(a1-2)Gal
# Outline: (§1)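 Glycan array data came from 3228 arrays in the Consortium for Functional Glycomics database, and only arrays with an available protein sequence were kept. Glycan names were put into IUPAC-condensed notation, and columns mapping to the same glycan were averaged. The binding signal is a within-array Z-score, averaged across arrays of one protein sequence run at different concentrations or buffers and across linkers. A negative Z-score can be read as non-binding.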
# Fuc(a1-2)Gal(b1-3)GalNAc = target: Fuc(a1-2)Gal(b1-3)GalNAc
# Outline: as §1
# [1] = target: Fuc(a1-2)Gal(b1-3)GalNAc(a1-3)[Fuc(a1-2)]Gal(b1-4)Glc
# Outline: as §1
# [2] = target: Fuc(a1-2)Gal(b1-3)GalNAc(a1-3)[Fuc(a1-2)]Gal(b1-4)GlcNAc
# Outline: as §1
# [3] = target: Fuc(a1-2)Gal(b1-3)GalNAc(b1-3)Gal
# Outline: as §1
# [4] = target: Fuc(a1-2)Gal(b1-3)GalNAc(b1-3)Gal(a1-4)Gal(b1-4)Glc
# Outline: as §1
# [5] = target: Fuc(a1-2)Gal(b1-3)GalNAc(b1-4)[Neu5Ac(a2-3)]Gal(b1-4)Glc
# Outline: as §1
# Fuc(a1-2)Gal(b1-3)GlcNAc = target: Fuc(a1-2)Gal(b1-3)GlcNAc
# Outline: as §1
# [6] = target: Fuc(a1-2)Gal(b1-3)GlcNAc(b1-2)Man(a1-3)[Fuc(a1-2)Gal(b1-3)GlcNAc(b1-2)Man(a1-6)]Man(b1-4)GlcNAc(b1-4)GlcNAc
# Outline: as §1
# [7] = target: Fuc(a1-2)Gal(b1-3)GlcNAc(b1-3)Gal(b1-4)Glc
# Outline: as §1
# [8] = target: Fuc(a1-2)Gal(b1-3)GlcNAc(b1-3)[Fuc(a1-3)[Gal(b1-4)]GlcNAc(b1-6)]Gal(b1-4)Glc
# Outline: as §1
# [9] = target: Fuc(a1-2)Gal(b1-3)[Fuc(a1-4)]GlcNAc
# Outline: as §1
# [10] = target: Fuc(a1-2)Gal(b1-3)[Fuc(a1-4)]GlcNAc(b1-2)Man(a1-3)[Fuc(a1-2)Gal(b1-3)[Fuc(a1-4)]GlcNAc(b1-2)Man(a1-6)]Man(b1-4)GlcNAc(b1-4)GlcNAc
# Outline: as §1
# [11] = target: Fuc(a1-2)Gal(b1-3)[Fuc(a1-4)]GlcNAc(b1-3)[Fuc(a1-3)[Gal(b1-4)]GlcNAc(b1-6)]Gal(b1-4)Glc
# Outline: as §1
# [12] = target: Fuc(a1-2)Gal(b1-3)[Fuc(a1-4)]GlcNAc(b1-3)[Gal(b1-4)GlcNAc(b1-6)]Gal(b1-4)Glc
# Outline: as §1
# Fuc(a1-2)Gal(b1-4)Glc = target: Fuc(a1-2)Gal(b1-4)Glc
# Outline: as §1
# Fuc(a1-2)Gal(b1-4)Glc6S = target: Fuc(a1-2)Gal(b1-4)Glc6S
# Outline: as §1
# Fuc(a1-2)Gal(b1-4)GlcNAc = target: Fuc(a1-2)Gal(b1-4)GlcNAc
# Outline: as §1
# [13] = target: Fuc(a1-2)Gal(b1-4)GlcNAc(b1-2)Man(a1-3)[Fuc(a1-2)Gal(b1-4)GlcNAc(b1-2)Man(a1-6)]Man(b1-4)GlcNAc(b1-4)GlcNAc
# Outline: as §1
# [14] = target: Fuc(a1-2)Gal(b1-4)GlcNAc(b1-3)Gal(b1-4)GlcNAc
# Outline: as §1
# [15] = target: Fuc(a1-2)Gal(b1-4)GlcNAc(b1-3)Gal(b1-4)GlcNAc(b1-3)Gal(b1-4)GlcNAc
# Outline: as §1
# [16] = target: Fuc(a1-2)Gal(b1-4)GlcNAc(b1-3)GalNAc
# Outline: as §1
# [17] = target: Fuc(a1-2)Gal(b1-4)GlcNAc6S
# Outline: as §1
# [18] = target: Fuc(a1-2)Gal(b1-4)[Fuc(a1-3)]GlcNAc
# Outline: as §1
# [19] = target: Fuc(a1-2)Gal(b1-4)[Fuc(a1-3)]GlcNAc(b1-2)Man(a1-3)[Fuc(a1-2)Gal(b1-4)[Fuc(a1-3)]GlcNAc(b1-2)Man(a1-6)]Man(b1-4)GlcNAc(b1-4)GlcNAc
# Outline: as §1
# [20] = target: Fuc(a1-2)Gal(b1-4)[Fuc(a1-3)]GlcNAc(b1-3)Gal(b1-4)[Fuc(a1-3)]GlcNAc
# Outline: as §1
# [21] = target: Fuc(a1-2)Gal(b1-4)[Fuc(a1-3)]GlcNAc(b1-3)Gal(b1-4)[Fuc(a1-3)]GlcNAc(b1-3)Gal(b1-4)[Fuc(a1-3)]GlcNAc
# Outline: as §1
# Fuc(a1-2)Gal6S(b1-4)Glc = target: Fuc(a1-2)Gal6S(b1-4)Glc
# Outline: as §1
# [22] = target: Fuc(a1-2)Gal6S(b1-4)Glc6S
# Outline: as §1
# [23] = target: Fuc(a1-2)Gal6S(b1-4)GlcNAc
# Outline: as §1
binder,measurement,setting,value
"MIC2 (Toxoplasma gondii), S8F9G8 (protein) MRLQREAVFGLMFACGMWMWPSEVAGGGWSIVDALRKRYDTSRGGDANGVDTSGVEDVIQSESAIGAAEGCTNQLDICFLIDSSGSIGIQNFRLVKQFLHTFLMVLPIGPEEVNNAVVTYSTDVHLQWDLQSPNAVDKQLAAHAVLDMPYKKGSTNTSDGLKACKQILFTGSRPGREHVPKLVIGMTDGESDSDFRTVRAAKEIRELGGIVTVLAVGHYVKHSECRSMCGCSGTSDDDSPCPLYLRADWGQLATAIKPMLKEVCKTLPQDAICSDWSAWSPCSVSCGDGSQIRTRTEVSAPQPGTPTCPDCPAPMGRTCVEQGGLEEIRECSAGVCAVDAGCGVWGEWSAWSASCGNATRKRERTRYNDPPPQGAGRRCENQDPPVLQEQTEEATLAPCITIPPTPPEWAAWSDCTVTCGGGNRHRVRNALPPGLGSQNGESDESLVSKLWPGTDLRQEEACNTSPCPINATCGQFEEWSTCSVSCGGGLKTRSRNPWNEDQQHGGLSCEQQHPGGRTETITCNPQACPVDERPGEWAEWGECSVTCGDGVRERRRGKSLVEAKFGGRTIDQQNEALPEDLKIKNVEYEPCSYPACGASCTYVWSDWNKCVCPMGYQARHAAVKFDYRNKPCDLPTFETKACSCGETNPVPSEGTTPGAPGATGPEQPNQRPLPEGSDENETPTNEEGEQSKKESGSGIAGAIAGGVIGGLILLGAAGGASYHYYLSSSVGSPSAEIEYEADDGATKVVMEEEKETLVPVDDDSDMWME",glycan array binding signal (z-score),Fuc(a1-2)Gal,-0.939
same,glycan array binding signal (z-score),Fuc(a1-2)Gal(b1-3)GalNAc,-0.56
same,glycan array binding signal (z-score),[1],0.334
same,glycan array binding signal (z-score),[2],0.72
same,glycan array binding signal (z-score),[3],1.55
same,glycan array binding signal (z-score),[4],0.859
same,glycan array binding signal (z-score),[5],-0.521
same,glycan array binding signal (z-score),Fuc(a1-2)Gal(b1-3)GlcNAc,-0.642
same,glycan array binding signal (z-score),[6],-0.799
same,glycan array binding signal (z-score),[7],-0.779
same,glycan array binding signal (z-score),[8],-0.526
same,glycan array binding signal (z-score),[9],0.282
same,glycan array binding signal (z-score),[10],2.4
same,glycan array binding signal (z-score),[11],-0.651
same,glycan array binding signal (z-score),[12],-1.05
same,glycan array binding signal (z-score),Fuc(a1-2)Gal(b1-4)Glc,-0.954
same,glycan array binding signal (z-score),Fuc(a1-2)Gal(b1-4)Glc6S,0.437
same,glycan array binding signal (z-score),Fuc(a1-2)Gal(b1-4)GlcNAc,-0.869
same,glycan array binding signal (z-score),[13],-0.517
same,glycan array binding signal (z-score),[14],0.079
same,glycan array binding signal (z-score),[15],-0.647
same,glycan array binding signal (z-score),[16],-0.541
same,glycan array binding signal (z-score),[17],0.297
same,glycan array binding signal (z-score),[18],0.037
same,glycan array binding signal (z-score),[19],1.29
same,glycan array binding signal (z-score),[20],0.181
same,glycan array binding signal (z-score),[21],-0.232
same,glycan array binding signal (z-score),Fuc(a1-2)Gal6S(b1-4)Glc,0.99
same,glycan array binding signal (z-score),[22],-0.577
same,glycan array binding signal (z-score),[23],0.325

# An excerpt taken from the entries so far, for reference:
binder,measurement,setting,value
"MIC2 (Toxoplasma gondii), S8F9G8 (protein) MRLQREAVFGLMFACGMWMWPSEVAGGGWSIVDALRKRYDTSRGGDANGVDTSGVEDVIQSESAIGAAEGCTNQLDICFLIDSSGSIGIQNFRLVKQFLHTFLMVLPIGPEEVNNAVVTYSTDVHLQWDLQSPNAVDKQLAAHAVLDMPYKKGSTNTSDGLKACKQILFTGSRPGREHVPKLVIGMTDGESDSDFRTVRAAKEIRELGGIVTVLAVGHYVKHSECRSMCGCSGTSDDDSPCPLYLRADWGQLATAIKPMLKEVCKTLPQDAICSDWSAWSPCSVSCGDGSQIRTRTEVSAPQPGTPTCPDCPAPMGRTCVEQGGLEEIRECSAGVCAVDAGCGVWGEWSAWSASCGNATRKRERTRYNDPPPQGAGRRCENQDPPVLQEQTEEATLAPCITIPPTPPEWAAWSDCTVTCGGGNRHRVRNALPPGLGSQNGESDESLVSKLWPGTDLRQEEACNTSPCPINATCGQFEEWSTCSVSCGGGLKTRSRNPWNEDQQHGGLSCEQQHPGGRTETITCNPQACPVDERPGEWAEWGECSVTCGDGVRERRRGKSLVEAKFGGRTIDQQNEALPEDLKIKNVEYEPCSYPACGASCTYVWSDWNKCVCPMGYQARHAAVKFDYRNKPCDLPTFETKACSCGETNPVPSEGTTPGAPGATGPEQPNQRPLPEGSDENETPTNEEGEQSKKESGSGIAGAIAGGVIGGLILLGAAGGASYHYYLSSSVGSPSAEIEYEADDGATKVVMEEEKETLVPVDDDSDMWME",glycan array binding signal (z-score),[16],-0.541
same,glycan array binding signal (z-score),[17],0.297
